In all, about 340,000 compounds went through this assay and about 6,200 (1.8%) were called active. The shares of active, inactive and inconclusive entries below differ from those in the screen. Calls come from the whole dose curve; as a rule, active = well fitted activation curve with a large enough effect; inconclusive = small, poorly fitted or top-dose-only effect; inactive = no such curve, though single readings can be large or run the other way. A potency beside an inconclusive call is a rough fit, not a confirmed value.
Test: A quantitative high throughput screen for small molecules that induce DNA re-replication in SW480 colon adenocarcinoma cells. For re-replication activation: % of control where 0% means no effect. Note: nearly all actives have a fitted effect of over 55% in size.
Conditions: Hoechst DNA content imaging, 48 h; re-replication activation: at 46.1 µM (top of the series) unless noted
In short: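 DNA re-replication was detected as more nuclei of elevated Hoechst intensity after 48 hr exposure to compound (23 nL pinned per well of 250 cells).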
Potency is the fitted concentration of half-maximal effect.

Compound	Potency	re-replication activation
Cn1c(CCNC(=O)c2ccccc2F)nnc1SCC(=O)Nc1ccccc1F	inconclusive: 0.0206 µM [activator, full curve, poor fit]	
NNC(=O)c1oc2nc(-c3ccco3)cc(-c3ccco3)c2c1N		inactive: -0.182%
CCc1cc(C(=O)N/N=C/c2ccc(O)cc2)c2ccccc2n1	inconclusive: 29.1 µM [activator, single point]	
Cc1ccc(/C=C2\SC(=S)N(CCCC(=O)Nc3cccnc3)C2=O)cc1	inconclusive: 29.1 µM [activator, single point]	
CC(CNC(=O)CCCn1ncn2c(cc3occc32)c1=O)c1ccccc1 (configuration not stated)		inactive: 3.63%
COc1cc(NC(=O)c2ccc3c(c2)OCO3)ccc1NC(=O)c1cccs1	inconclusive: 29.1 µM [activator, single point]	
COc1ccc(CC(=O)OC(C)C(=O)Nc2ccc(Cl)cn2)cc1 (configuration not stated)		inactive: -3.69%
CC(=O)NC1=NN(C(C)=O)C2(CCCCC2)S1	inconclusive: 25.9 µM [activator, single point]	
CC(NC(=O)c1ccc(NC(=O)CC2SC(N3CCCC3)=NC2=O)cc1)c1ccc(F)cc1 (configuration not stated)	inconclusive: 0.731 µM [activator, partial curve, poor fit]	
O=C(CCN1CCOCC1)c1ccc2c(c1)OCCO2	inconclusive: 16.4 µM [activator, partial curve, poor fit]	
O=C(N/N=C/c1cccs1)c1cccc(S(=O)(=O)Nc2ccc(Cl)cc2)c1		inactive: -26.8%
CCCOc1cccc(-c2nc3ccccc3c(=O)o2)c1	inconclusive: 14.6 µM [activator, single point]	
O=C(Oc1c(-c2ccccc2)c(=O)n2c3c(cccc13)CC2)c1ccc(F)cc1		inactive: -5.6%
COc1cccc(-c2cc(C(F)(F)F)nc(-n3cc(Cl)cn3)n2)c1	inconclusive: 23.1 µM [activator, single point]	
COc1ccc(-c2ccc(SCC(=O)c3ccc(F)cc3)nn2)cc1OC		inactive: 0.329%
O=C(NN=C1C2CC3CC(C2)CC1C3)c1ccncc1		inactive: -0.199%
Cc1nnc(SCC(=O)NC23CC4CC(CC(C4)C2)C3)s1		inactive: -1.65% [at 1.84 µM]
Cc1ccc2nc(N(CCCN(C)C)C(=O)CCc3ccccc3)sc2c1	inconclusive: 23.1 µM [activator, single point]	
COc1cc(C(=O)O/N=C2\C=CC(=O)C(C)=C2)cc(OC)c1OC	active: 5.8 µM	
CN[C@H]1CC[C@@H](c2ccc(Cl)c(Cl)c2)c2ccccc21	inconclusive: 1.12 µM [activator, single point]	
S=C(N/N=C1\CCc2ccccc21)NC1CCCCC1		inactive: -10.4%
COCCCNC(=O)c1c(N)n(-c2ccc(S(N)(=O)=O)cc2)c2nc3ccccc3nc12	active: 9.2 µM	
O=C(COc1cccc2ccccc12)NNC(=O)Nc1ccccc1		inactive: -3.88%

Compound	Potency	re-replication activation
COc1cc(CCC(=O)OCC(=O)NCCc2ccc(S(N)(=O)=O)cc2)cc(OC)c1OC		inactive: 1.29%
Cc1cc(SCC(=O)N/N=C/c2ccc(O)cc2O)c(C)cc1Br	inconclusive: 6.51 µM [activator, single point]	
COc1cc(/C=N/NC(=S)NC2CC3C=CC2C3)cc(OC)c1OC (configuration not stated)		inactive: -14.7%
O=C(CC1C(=O)NCCN1Cc1ccccc1C(F)(F)F)NCCn1cccn1 (configuration not stated)	inconclusive: 1.16 µM [activator, single point]	
COC(=O)C1CCN(C(=O)COC(=O)c2cc(-c3ccccc3)nc3ccc(OC)cc23)CC1	inconclusive: 3.66 µM [activator, full curve, poor fit]	
O=c1c2ccccc2nc(-c2ccc(Cl)cc2Cl)n1O		inconclusive: 48.2% [activator]
COC(=O)CC(CC(=O)OC)n1cccc1		inactive: 0.407%
CCc1ccc(CNC(=O)C2CCCN(S(=O)(=O)N3CC(C)CC(C)C3)C2)cc1 (configuration not stated)	inconclusive: 29.1 µM [activator, single point]	
O=C(CO/N=C/c1ccccc1)N1c2ccccc2Oc2ccccc21	inconclusive: 29.1 µM [activator, partial curve, poor fit]	
CC(=O)c1ccc(O)c(CSc2nncn2C)c1	inconclusive: 0.206 µM [activator, full curve, poor fit]	
COc1cc(C(=O)NNC(=O)COc2cccc(F)c2)ccc1OCC(=O)N1CCOCC1	inconclusive: 29.1 µM [activator, single point]	
CSCCC(NS(=O)(=O)c1cccc(C(F)(F)F)c1)C(=O)N1CCN(C(=O)c2ccco2)CC1 (configuration not stated)		inactive: -9.32%
Cc1ccc(NC(=S)NCCc2ccccc2)c(C)c1	inconclusive: 25.9 µM [activator, single point]	
CC(C)C[C@H](NC(=O)c1nc[nH]c1C(=O)NCCCCCNC(=O)OC(C)(C)C)C(=O)OCc1ccccc1		inactive: -0.532%
CCOC(=O)C(=O)Cc1nc(OCc2ccccc2)cc(OCc2ccccc2)n1		inactive: 14.5%
Cn1cc([N+](=O)[O-])c(C(=O)Nc2ccc(C3CCCCC3)cc2)n1	inconclusive: 18.4 µM [activator, single point]	
Cc1ccc(-n2ccc(=O)c(C(=O)O)n2)cc1	inconclusive: 0.562 µM [activator, full curve]	
Nc1c2c(nc3ccccc13)N(C1CCCCC1)CC2	inconclusive: 20.6 µM [activator, single point]	
COc1ccc(S(=O)(=O)N2CCC3(CC2)OCCN3S(=O)(=O)c2ccc(C)cc2)cc1OC	inconclusive: 9.2 µM [activator, partial curve, poor fit]	
CN(Cc1nc2ccccc2c(=O)[nH]1)C(=O)c1cccc(S(=O)(=O)N2CCCCCC2)c1		inactive: -22.6%
Cc1ccc2c(c1)c1c3n2CCCN(Cc2ccccc2)C3CCC1 (configuration not stated)	inconclusive: 29.1 µM [activator, single point]	
CCNS(=O)(=O)c1ccc(CCC(=O)Nc2ccccc2)cc1		inactive: -11.4%
CC(=O)Nc1ccc(Nc2nc(C(F)(F)F)nc3c2nnn3Cc2ccccc2Cl)cc1	inconclusive: 23.1 µM [activator, partial curve, poor fit]	

Quoted from the listing (19 entries):
Compound	Potency	re-replication activation
COC(=O)C1CCN(C(=O)COC(=O)c2cc(-c3ccccc3)nc3ccc(OC)cc23)CC1	inconclusive: 3.66 µM [activator, full curve, poor fit]	
O=c1c2ccccc2nc(-c2ccc(Cl)cc2Cl)n1O		inconclusive: 48.2% [activator]
COC(=O)CC(CC(=O)OC)n1cccc1		inactive: 0.407%
CCc1ccc(CNC(=O)C2CCCN(S(=O)(=O)N3CC(C)CC(C)C3)C2)cc1 (configuration not stated)	inconclusive: 29.1 µM [activator, single point]	
O=C(CO/N=C/c1ccccc1)N1c2ccccc2Oc2ccccc21	inconclusive: 29.1 µM [activator, partial curve, poor fit]	
CC(=O)c1ccc(O)c(CSc2nncn2C)c1	inconclusive: 0.206 µM [activator, full curve, poor fit]	
COc1cc(C(=O)NNC(=O)COc2cccc(F)c2)ccc1OCC(=O)N1CCOCC1	inconclusive: 29.1 µM [activator, single point]	
CSCCC(NS(=O)(=O)c1cccc(C(F)(F)F)c1)C(=O)N1CCN(C(=O)c2ccco2)CC1 (configuration not stated)		inactive: -9.32%
Cc1ccc(NC(=S)NCCc2ccccc2)c(C)c1	inconclusive: 25.9 µM [activator, single point]	
CC(C)C[C@H](NC(=O)c1nc[nH]c1C(=O)NCCCCCNC(=O)OC(C)(C)C)C(=O)OCc1ccccc1		inactive: -0.532%
CCOC(=O)C(=O)Cc1nc(OCc2ccccc2)cc(OCc2ccccc2)n1		inactive: 14.5%
Cn1cc([N+](=O)[O-])c(C(=O)Nc2ccc(C3CCCCC3)cc2)n1	inconclusive: 18.4 µM [activator, single point]	
Cc1ccc(-n2ccc(=O)c(C(=O)O)n2)cc1	inconclusive: 0.562 µM [activator, full curve]	
Nc1c2c(nc3ccccc13)N(C1CCCCC1)CC2	inconclusive: 20.6 µM [activator, single point]	
COc1ccc(S(=O)(=O)N2CCC3(CC2)OCCN3S(=O)(=O)c2ccc(C)cc2)cc1OC	inconclusive: 9.2 µM [activator, partial curve, poor fit]	
CN(Cc1nc2ccccc2c(=O)[nH]1)C(=O)c1cccc(S(=O)(=O)N2CCCCCC2)c1		inactive: -22.6%
Cc1ccc2c(c1)c1c3n2CCCN(Cc2ccccc2)C3CCC1 (configuration not stated)	inconclusive: 29.1 µM [activator, single point]	
CCNS(=O)(=O)c1ccc(CCC(=O)Nc2ccccc2)cc1		inactive: -11.4%
CC(=O)Nc1ccc(Nc2nc(C(F)(F)F)nc3c2nnn3Cc2ccccc2Cl)cc1	inconclusive: 23.1 µM [activator, partial curve, poor fit]	

(further entries)

Compound	Potency	re-replication activation
CCOC(=O)C1CCCN(C(=O)CCNS(=O)(=O)c2ccc(Br)cc2)C1 (configuration not stated)	inconclusive: 3.66 µM [activator, full curve, poor fit]	
C=CCOc1c2ccc(C(=O)NCc3ccc(OC)cc3)cc2nn1C	inconclusive: 2.06 µM [activator, single point]	
O=C(/C=C/c1ccccc1)c1ccc2c(c1)OCCCCO2	inconclusive: 28.2 µM [activator, single point]	
Cc1ccc(-c2nnn(CC(=O)Nc3nnc(C(C)C)s3)n2)cc1	inconclusive: 4.61 µM [activator, partial curve, poor fit]	
CO[C@@H]1[C@@H](OC2OC(C)C(OC3CC(C)(O)C(OC(=O)CC(C)C)C(C)O3)C(N(C)C)C2O)[C@@H](CC=O)C[C@@H](C)C(=O)/C=C\C2O[C@H]2C[C@@H](C)OC(=O)C[C@H]1OC(C)=O (some centres not stated)	active: 18.8 µM	
O=c1cc(O)nc(-c2ccccc2)s1	inconclusive: 6.51 µM [activator, single point]	
COc1cc(Br)c(CN2CCCN(C)CC2)cc1OC		inactive: -8.98%
O=C(N/N=C\c1cc(Br)cs1)C1COc2ccccc2O1 (configuration not stated)	inconclusive: 23.1 µM [activator, single point]	
COc1ccc(C(=O)[C@H]2[C@H]3C(=O)N(c4ccccc4)C(=O)[C@H]3C3C=CC=NN32)cc1 (some centres not stated)	inconclusive: 0.92 µM [activator, full curve, poor fit]	
COc1ccc(CN(C)C(=O)c2[nH]c(C)c(C(C)=O)c2C)c(OC)c1OC		inactive: 1.57%
CCc1ccc(CN(C)C(=O)c2cc(=O)c3ccccc3o2)cc1		inactive: -10.9%
CC(C(=O)NCCc1ccc(Cl)cc1)n1c(=O)c2cccn2c2cccnc21 (configuration not stated)		inconclusive: -43.9% [activator]
O=C(Nc1nc2ccsc2c(=O)s1)c1ccc(F)cc1Cl	inconclusive: 0.082 µM [activator, full curve, poor fit]	
CCNc1sc(C(=O)c2cccs2)c(N)c1-c1nc2ccccc2s1	active: 0.82 µM	
O=C(Nc1cc(S(=O)(=O)N2CCCCC2)ccc1Cl)c1ccccc1NS(=O)(=O)c1ccc(F)cc1	inconclusive: 32.6 µM [activator, partial curve, poor fit]	
Cc1cccc(C(=O)N2CCC(=O)N(C(COCc3cccc(C(F)(F)F)c3)Cc3ccccc3)CC2)c1 (configuration not stated)	inconclusive: 4.11 µM [activator, full curve, poor fit]	
Cc1ccc(C(=O)N/C(=C\c2ccc(-c3ccc(Br)cc3)o2)C(=O)NC2CCS(=O)(=O)C2)cc1 (configuration not stated)	inconclusive: 29.1 µM [activator, partial curve, poor fit]	
C=C1CCC[C@]2(C)C[C@H]3OC(=O)C(CNCC(OC)OC)[C@H]3CC12 (some centres not stated)	inconclusive: 29.1 µM [activator, single point]	
COC(=O)C1=C[C@@H](C(=O)OC)[C@@H]2C3=C(C(=O)[C@@]2(C)NC(=O)c2ccccc2)[C@H](C)n2c(=O)n(C)c(=O)n2[C@@H]3C1	inconclusive: 29.1 µM [activator, single point]	
O=C(N/N=C/c1cc([N+](=O)[O-])ccc1O)c1ccc(COc2ccc3c(c2)CCC3)o1	inconclusive: 20.6 µM [activator, single point]	
Cc1cc(Cl)nc(Cl)c1C(=O)NC(=O)NCCC(C)C	inconclusive: 0.082 µM [activator, full curve, poor fit]	

Source: PubChem BioAssay AID624297 (National Center for Advancing Translational Sciences (NCATS), 2012)
